According to publication PMC11719499 (International Journal of Molecular Sciences, 2024):

Conditions: class from logPe in PAMPA-BBB

## NS(=O)(=O)c1cc(C(=O)O)c(NCc2ccco2)cc1Cl [Furosemide, furosemide, reference compound]
  Prediction of penetration to the CNS: CNS − (− is not detected in acceptor or logPe < −6.0)
